The chains are these.
T1: Pub1 RRM3 (S. cerevisiae) (UniProt P32588)
T1 sequence: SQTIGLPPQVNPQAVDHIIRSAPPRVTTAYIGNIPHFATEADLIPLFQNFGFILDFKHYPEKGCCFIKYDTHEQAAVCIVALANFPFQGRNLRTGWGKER

T2: eIF4G1_(1-249) (S. cerevisiae) (UniProt P39935)
T2 sequence: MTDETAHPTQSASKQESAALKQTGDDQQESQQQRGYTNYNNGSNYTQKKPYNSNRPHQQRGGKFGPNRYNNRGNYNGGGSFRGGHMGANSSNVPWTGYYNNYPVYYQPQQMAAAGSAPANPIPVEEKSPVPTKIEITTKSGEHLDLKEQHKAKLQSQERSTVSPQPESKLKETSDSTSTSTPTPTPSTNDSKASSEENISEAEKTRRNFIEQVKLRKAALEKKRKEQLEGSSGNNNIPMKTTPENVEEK

B1: eIF4G1_(1-249) (domain or fragment, UniProt P39935 1-249)
chain: T2 sequence
B2: Pub1 RRM3 (domain or fragment, UniProt P32588 315-414)
chain: T1 sequence
B3: eIF4G1_(1-402) (domain or fragment, UniProt P39935 1-402)
chain: MTDETAHPTQSASKQESAALKQTGDDQQESQQQRGYTNYNNGSNYTQKKPYNSNRPHQQRGGKFGPNRYNNRGNYNGGGSFRGGHMGANSSNVPWTGYYNNYPVYYQPQQMAAAGSAPANPIPVEEKSPVPTKIEITTKSGEHLDLKEQHKAKLQSQERSTVSPQPESKLKETSDSTSTSTPTPTPSTNDSKASSEENISEAEKTRRNFIEQVKLRKAALEKKRKEQLEGSSGNNNIPMKTTPENVEEKGSDKPEVTEKTKPAEEKSAEPEVKQETPAEEGEQGEKGQIKEESTPKVLTFAERLKLKKQQKEREEKTEGKENKEVPVQEETKSAIESAPVPPSEQVKEETEVAETEQSNIDESATTPAIPTKSDEAEAEVEAEAGDAGTKIGLEAEIETTTD
B4: eIF4G1_(1-82) (domain or fragment, UniProt P39935 1-82)
chain: MTDETAHPTQSASKQESAALKQTGDDQQESQQQRGYTNYNNGSNYTQKKPYNSNRPHQQRGGKFGPNRYNNRGNYNGGGSFR
B5: eIF4G1_(1-184) (domain or fragment, UniProt P39935 1-184)
chain: MTDETAHPTQSASKQESAALKQTGDDQQESQQQRGYTNYNNGSNYTQKKPYNSNRPHQQRGGKFGPNRYNNRGNYNGGGSFRGGHMGANSSNVPWTGYYNNYPVYYQPQQMAAAGSAPANPIPVEEKSPVPTKIEITTKSGEHLDLKEQHKAKLQSQERSTVSPQPESKLKETSDSTSTSTPTP
B6: eIF4G1_(1-184) Y105A/Y106A (domain or fragment, UniProt P39935 1-184)
chain: B5 chain with Y105A, Y106A
B7: eIF4G1_(1-184) Y98A/Y99A (domain or fragment, UniProt P39935 1-184)
chain: B5 chain with Y98A, Y99A
B8: eIF4G1_(1-184) W95A (domain or fragment, UniProt P39935 1-184)
chain: B5 chain with W95A
B9: eIF4G1_(1-348) (domain or fragment, UniProt P39935 1-348)
chain: MTDETAHPTQSASKQESAALKQTGDDQQESQQQRGYTNYNNGSNYTQKKPYNSNRPHQQRGGKFGPNRYNNRGNYNGGGSFRGGHMGANSSNVPWTGYYNNYPVYYQPQQMAAAGSAPANPIPVEEKSPVPTKIEITTKSGEHLDLKEQHKAKLQSQERSTVSPQPESKLKETSDSTSTSTPTPTPSTNDSKASSEENISEAEKTRRNFIEQVKLRKAALEKKRKEQLEGSSGNNNIPMKTTPENVEEKGSDKPEVTEKTKPAEEKSAEPEVKQETPAEEGEQGEKGQIKEESTPKVLTFAERLKLKKQQKEREEKTEGKENKEVPVQEETKSAIESAPVPPSEQVKE
B10: eIF4G1_(1-305) (domain or fragment, UniProt P39935 1-305)
chain: MTDETAHPTQSASKQESAALKQTGDDQQESQQQRGYTNYNNGSNYTQKKPYNSNRPHQQRGGKFGPNRYNNRGNYNGGGSFRGGHMGANSSNVPWTGYYNNYPVYYQPQQMAAAGSAPANPIPVEEKSPVPTKIEITTKSGEHLDLKEQHKAKLQSQERSTVSPQPESKLKETSDSTSTSTPTPTPSTNDSKASSEENISEAEKTRRNFIEQVKLRKAALEKKRKEQLEGSSGNNNIPMKTTPENVEEKGSDKPEVTEKTKPAEEKSAEPEVKQETPAEEGEQGEKGQIKEESTPKVLTFAERLK

Residue numbers refer to the chain shown, from its start. Names may count otherwise. These are yes or no findings as the source states them, for the method shown. Some entries that bind do so weakly or less than the wild type.

The first assay addresses T1, Pub1 RRM3 (S. cerevisiae). Kind of assay: NMR structure.
In the case of GYTNYNNGSNYTQKK (peptide, UniProt P39935 35-49) [eIF4G1_(35-49)], the binding entry is reported as “binds weakly”.

The target in a further assay is T1, Pub1 RRM3 (S. cerevisiae). The assay is described as follows: NMR titration.
For B1, the binding result was “binds”.

The next assay deals with T2, eIF4G1_(1-249) (S. cerevisiae). Kind of assay: NMR titration.
As for B2, the binding result is on record as “binds weakly”.

The target in another assay is T1, Pub1 RRM3 (S. cerevisiae). The assay is described as follows: NMR titration. The source holds these as a separate data set.
For the molecule B3, the binding result is on record as “binds weakly”.
Turning to B4, the binding result is recorded as “binds weakly”.
With STNDSKASSEENISEAEKTRRNFIEQVKLRKAALEKKRKEQLEGSSGN (peptide, UniProt P39935 187-234) [eIF4G1 BOX3 peptide (eIF4G1_(187-234))], the binding result was “no binding”.
In the case of B1, the binding entry is given as “binds weakly”.
Still for that read-out and setting: as for B5, the entry is “binds”; as for B6, “binds weakly”.
The same measure, in the same setting: next, B7: “binds weakly”; B8: “binds weakly”; B9: “binds weakly”.
Same read-out and setting: as for B10, the entry is “binds weakly”.

Values taken from paper doi:10.1101/2020.08.07.234443.
